According to PubChem BioAssay AID192 (DTP/NCI, 2004):
The list shows only some results of the screen, not a fair sample: it gathers tests that were run many times, whatever their T/C, doses with no T/C, and many T/C values between a quarter and a half above the control. Further doses and runs are listed elsewhere. T/C gives the treated animals as a percentage of the vehicle group. Some entries give survivors of the animals treated and no T/C: the source holds a T/C of zero for them, seemingly a mark for toxic or unscored doses. Some survivor counts are full or nearly so, which does not show that the dose was tolerated: the source hardly ever lists a survival T/C far under the control, and the zero likely stands for such cases as well. Counts of survivors are from the toxicity check (mostly the fifth day) where no day follows; animals may have died later. Schedules are NCI's codes, taken here to give the interval after Q, in days (D) or hours (H), and the number of doses after X. Counts like (3×) count equal records among those shown. Some doses were run more than once; their values stand side by side, smallest first. Where survival is the endpoint, this PubChem deposit counts one and a half times the control or more as active, and values a quarter to a half above the control carry no call in these data; other NCI protocols may use other cut-offs. Some T/C values carry the count of animals alive at the toxicity check (mostly the fifth day); without a count, all were alive then.

Tested on: BDF1 mice, B16 melanoma ip, median survival T/C
Assay: NCI In Vivo Anticancer Drug Screen. Data for tumor model B16 Melanoma (intraperitoneal) in B6D2F1 (BDF1) mice
Details: T/C endpoint: median survival time, higher T/C = longer survival
Outline: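 Tumor-bearing mice received test compound or vehicle. Survival or tumor size was then measured in both groups. The treated-group figure was divided by the control-group figure.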

[1] = dose: 25.0 mg/kg/injection, schedule: Q01DX009 (ip), vehicle: saline with Tween-80
[2] = dose: 100.0 mg/kg/injection, schedule: Q01DX009 (ip), vehicle: Klucel (hydroxypropylcellulose) (HPC)
[3] = dose: 200.0 mg/kg/injection, schedule: Q01DX009 (ip), vehicle: Klucel (hydroxypropylcellulose) (HPC)
[4] = dose: 200.0 mg/kg/injection, schedule: Q01DX009 (ip), vehicle: saline
[5] = dose: 0.6 mg/kg/injection, schedule: Q01DX009 (ip), vehicle: saline with Tween-80

Cc1ccc(S(=O)(=O)N/N=C/C(=O)O)cc1
survivor count (dose: 3.12 mg/kg/injection, schedule: Q01DX009 (ip), vehicle: saline with Tween-80): 10 of 10
T/C (dose: 12.5 mg/kg/injection, schedule: Q01DX009 (ip), vehicle: Klucel (hydroxypropylcellulose) (HPC)): 125 % of control
T/C (dose: 17.5 mg/kg/injection, schedule: Q01DX009 (ip), vehicle: saline with Tween-80): 126 % of control
T/C (dose: 25.0 mg/kg/injection, schedule: Q01DX009 (ip), vehicle: Klucel (hydroxypropylcellulose) (HPC), evaluated on day 45): 143 % of control
T/C (dose: 25.0 mg/kg/injection, schedule: Q01DX009 (ip), vehicle: Klucel (hydroxypropylcellulose) (HPC), evaluated on day 60): 136 % of control
T/C [1]: 132 % of control
T/C (dose: 35.0 mg/kg/injection, schedule: Q01DX009 (ip), vehicle: Klucel (hydroxypropylcellulose) (HPC)): 143 % of control
T/C (dose: 50.0 mg/kg/injection, schedule: Q01DX009 (ip), vehicle: Klucel (hydroxypropylcellulose) (HPC), evaluated on day 45): 131 % of control
T/C (dose: 50.0 mg/kg/injection, schedule: Q01DX009 (ip), vehicle: Klucel (hydroxypropylcellulose) (HPC), evaluated on day 60): 125 % of control
survivor count (dose: 50.0 mg/kg/injection, schedule: Q01DX009 (ip), vehicle: saline): 10 of 10
survivor count [2]: 10 of 10 (2×)
survivor count (dose: 100.0 mg/kg/injection, schedule: Q01DX009 (ip), vehicle: saline): 10 of 10
survivor count (dose: 140.0 mg/kg/injection, schedule: Q01DX009 (ip), vehicle: Klucel (hydroxypropylcellulose) (HPC)): 5 of 10
survivor count (dose: 140.0 mg/kg/injection, schedule: Q01DX009 (ip), vehicle: saline with Tween-80): 10 of 10
survivor count [3]: 9 of 10
survivor count [4]: 10 of 10
survivor count (dose: 400.0 mg/kg/injection, schedule: Q01DX009 (ip), vehicle: saline): 0 of 10

CCOC1=C(N2CC2)C(=O)C(OCC)=C(N2CC2)C1=O
T/C (dose: 1.0 mg/kg/injection, schedule: Q01DX009 (ip), vehicle: saline): 136 % of control
survivor count (dose: 4.0 mg/kg/injection, schedule: Q01DX009 (ip), vehicle: saline): 9 of 10

NCCCOc1ccc([N+](=O)[O-])cc1Cl
survivor count [4]: 1 of 10

Cc1ccc(NC(=O)c2ccccc2)cc1[As]=[As]c1cc(NC(=O)c2ccccc2)ccc1C (stereo unspecified)
survivor count [5]: 9 of 10
survivor count (dose: 0.62 mg/kg/injection, schedule: Q04DX003 (ip), vehicle: Klucel (hydroxypropylcellulose) (HPC)): 10 of 10
survivor count (dose: 1.25 mg/kg/injection, schedule: Q01DX009 (ip), vehicle: saline with Tween-80): 10 of 10
survivor count (dose: 1.25 mg/kg/injection, schedule: Q04DX003 (ip), vehicle: Klucel (hydroxypropylcellulose) (HPC)): 1 of 10 and 10 of 10
survivor count (dose: 1.25 mg/kg/injection, schedule: Q04DX003 (ip), vehicle: saline with Tween-80): 10 of 10
survivor count (dose: 2.5 mg/kg/injection, schedule: Q01DX009 (ip), vehicle: saline with Tween-80): 10 of 10
survivor count (dose: 2.5 mg/kg/injection, schedule: Q04DX003 (ip), vehicle: Klucel (hydroxypropylcellulose) (HPC)): 10 of 10
survivor count (dose: 2.5 mg/kg/injection, schedule: Q04DX003 (ip), vehicle: saline with Tween-80): 10 of 10
survivor count (dose: 5.0 mg/kg/injection, schedule: Q01DX009 (ip), vehicle: saline with Tween-80): 10 of 10
survivor count (dose: 5.0 mg/kg/injection, schedule: Q04DX003 (ip), vehicle: Klucel (hydroxypropylcellulose) (HPC)): 10 of 10
survivor count (dose: 5.0 mg/kg/injection, schedule: Q04DX003 (ip), vehicle: saline with Tween-80): 10 of 10
survivor count (dose: 10.0 mg/kg/injection, schedule: Q04DX003 (ip), vehicle: Klucel (hydroxypropylcellulose) (HPC)): 0 of 10
survivor count (dose: 10.0 mg/kg/injection, schedule: Q04DX003 (ip), vehicle: saline with Tween-80): 2 of 10 and 4 of 10

[Cl][Mn][Cl]
T/C (dose: 17.8 mg/kg/injection, schedule: Q01DX009 (ip), vehicle: saline): 125 % of control
T/C (dose: 17.8 mg/kg/injection, schedule: Q01DX009 (ip), vehicle: water): 135 % of control
T/C (dose: 26.7 mg/kg/injection, schedule: Q01DX009 (ip), vehicle: water): 128 % of control
T/C (dose: 40.0 mg/kg/injection, schedule: Q01DX009 (ip), vehicle: water): 139 % of control
survivor count (dose: 90.0 mg/kg/injection, schedule: Q01DX009 (ip), vehicle: saline): 5 of 10 and 8 of 10
survivor count (dose: 90.0 mg/kg/injection, schedule: Q01DX009 (ip), vehicle: water): 9 of 10
survivor count (dose: 100.0 mg/kg/injection, schedule: Q01DX009 (ip), vehicle: water): 9 of 10
survivor count (dose: 135.0 mg/kg/injection, schedule: Q01DX009 (ip), vehicle: saline): 0 of 10
survivor count (dose: 135.0 mg/kg/injection, schedule: Q01DX009 (ip), vehicle: water): 2 of 10
survivor count (dose: 135.0 mg/kg/injection, schedule: Q01DX009 (sc), vehicle: water): 6 of 10
survivor count (dose: 202.5 mg/kg/injection, schedule: Q01DX009 (sc), vehicle: water): 2 of 10

COc1ccc(CC2C(=O)NC(C)C(=O)N(C)C3C(=O)N(C)C(Cc4ccc(O)c(c4)Oc4ccc(cc4)C3O)C(=O)NC(C)C(=O)NC(C)C(=O)N2C)cc1 (stereo unspecified) (tested in a mixture with another compound)
T/C (dose: 0.12 mg/kg/injection, schedule: Q01DX009 (ip), vehicle: saline with Tween-80): 146 % of control
T/C (dose: 0.25 mg/kg/injection, schedule: Q01DX009 (ip), vehicle: saline with Tween-80): 147 % of control
T/C (dose: 0.5 mg/kg/injection, schedule: Q01DX009 (ip), vehicle: saline with Tween-80): 149 % of control
survivor count (dose: 4.0 mg/kg/injection, schedule: Q01DX009 (ip), vehicle: saline with Tween-80): 7 of 10
T/C (dose: 125.0 micrograms/kg/injection, schedule: Q01DX009 (ip), vehicle: saline): 132 % of control
T/C (dose: 500.0 micrograms/kg/injection, schedule: Q01DX009 (ip), vehicle: saline): 139 % of control
T/C (dose: 1000.0 micrograms/kg/injection, schedule: Q01DX009 (ip), vehicle: saline): 148 % of control
T/C (dose: 4000.0 micrograms/kg/injection, schedule: Q01DX009 (ip), vehicle: saline): 129 % of control

Cc1ccc(/C=N\N=C\c2ccc(C)cc2)cc1
survivor count (dose: 200.0 mg/kg/injection, schedule: Q01DX009 (ip), vehicle: saline with Tween-80): 10 of 10

ClC1CC[N-]CC1.ClC1CC[N-]CC1.[Cl][Pt+2]([Cl])([Cl])[Cl]
T/C [1]: 132 % of control
survivor count (dose: 50.0 mg/kg/injection, schedule: Q01DX009 (ip), vehicle: saline with Tween-80): 10 of 10

CC(=O)c1c(O)c(C)c(O)c2c1OC1=CC(=O)C(C(C)=O)C(=O)C12C (stereo unspecified)
survivor count (dose: 10.0 mg/kg/injection, schedule: Q01DX009 (ip), vehicle: gum acacia): 10 of 10

O=C1C=CC(=O)N1c1ccc2c(c1)oc(=O)c1ccccc12
survivor count [2]: 10 of 10
survivor count [3]: 9 of 10

CC(=O)c1cccc(NC2C(N)C(NC(=O)N(C)C)(C(C)O)C(C)(O)C2(O)COC(=O)c2c(C)cccc2O)c1 (stereo unspecified)
T/C [5]: 126 % of control [9 of 10 alive]
T/C (dose: 1.2 mg/kg/injection, schedule: Q01DX009 (ip), vehicle: saline with Tween-80): 135 % of control
T/C (dose: 2.0 mg/kg/injection, schedule: Q01DX009 (ip), vehicle: Klucel (hydroxypropylcellulose) (HPC)): 129 % of control [9 of 10 alive]
T/C (dose: 2.4 mg/kg/injection, schedule: Q01DX009 (ip), vehicle: saline with Tween-80): 137 % of control
T/C (dose: 2.4 mg/kg/injection, schedule: Q01DX009 (ip), vehicle: saline): 129 % of control
survivor count (dose: 4.0 mg/kg/injection, schedule: Q01DX009 (ip), vehicle: Klucel (hydroxypropylcellulose) (HPC)): 5 of 10
survivor count (dose: 4.8 mg/kg/injection, schedule: Q01DX009 (ip), vehicle: saline with Tween-80): 9 of 10
survivor count (dose: 4.8 mg/kg/injection, schedule: Q01DX009 (ip), vehicle: saline): 10 of 10
